Amino acid sequences for entries named in this document (tags omitted). A change or cut given only in a name is not applied to a line headed by its entry.
UniProt O43186: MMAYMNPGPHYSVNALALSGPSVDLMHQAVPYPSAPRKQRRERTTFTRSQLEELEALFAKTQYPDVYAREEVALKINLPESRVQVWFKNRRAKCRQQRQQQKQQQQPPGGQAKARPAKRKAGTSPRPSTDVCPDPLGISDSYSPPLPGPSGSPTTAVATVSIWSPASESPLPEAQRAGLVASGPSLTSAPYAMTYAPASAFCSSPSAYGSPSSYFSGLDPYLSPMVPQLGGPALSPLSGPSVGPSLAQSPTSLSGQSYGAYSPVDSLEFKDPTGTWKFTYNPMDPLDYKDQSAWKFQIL

The entries are a selection whose mix differs from that of the whole data set. At the low end of the ranking the order means little.
These sequences were tested against CRX (UniProt O43186) (assay: DAPPL (digital affinity profiling via proximity ligation, sequencing)). Conditions: 10 mM Tris-HCl pH 7.5, 50 mM NaCl, 1 mM DTT, 4% glycerol, room temperature, 30 min; GST-TFs on glutathione beads, 16-mer random dsDNA library, 0.1% …; high values mean tight binding; double strand, one strand shown; scale: fold enrichment (6-mer frequency, TF over GST control).
Sequence CCTCCT has a binding signal of 1.32. Sequence CCATCC has a binding signal of 0.875. TCTGTA was tested, and the binding signal was 1.34. GCACAT was tested, and the binding signal was 0.848. Sequence TTCCAT has a binding signal of 1.43. For AACATT, the binding signal was 1.34. In the case of AACCAC, the binding signal is reported as 0.979. In the case of CCAAAC, the binding signal is reported as 0.895. GCTACA gave a binding signal of 0.952. ACGCCT was tested, and the binding signal was 1.08. With AAGGCA the binding signal was 0.943. Sequence CCGTCT has a binding signal of 1.26. In the case of CAACAC, the binding signal is reported as 0.817. For AACCCG, the binding signal was 1.2. CGGTAT gave a binding signal of 0.822. CGCCTG showed a binding signal of 0.873. AACTAC gave a binding signal of 1.2. GCAACC showed a binding signal of 0.689. CAAACC showed a binding signal of 0.899. Work on CTTCGT yielded a binding signal of 1.22. CACCCC was tested, and the binding signal was 0.93. In the case of ATGTTT, the binding signal is reported as 1.26. CACGAT gave a binding signal of 1.39. CCACAA showed a binding signal of 0.992. ATCCTC showed a binding signal of 2.46. Sequence TGCATC has a binding signal of 0.947. Work on GCTGGC yielded a binding signal of 0.843. For ACTCTG, the binding signal was 1.12. For TGCATT, the binding signal was 1.32. In the case of AACTAT, the binding signal is reported as 1.26. ATGGGG was tested, and the binding signal was 1.03. Sequence TGCTTG has a binding signal of 0.973. Work on TCATCC yielded a binding signal of 1.65. For CACCGG, the binding signal was 0.614. For GCTAGC, the binding signal was 1.05. Sequence GTGACC has a binding signal of 0.829. For TTCGCC, the binding signal was 1. ACAACT was tested, and the binding signal was 1.02. For TGATAT, the binding signal was 1.08. TTTCCC gave a binding signal of 1.43.

Reference: paper PMC7862700
